Assay results from the supplement of paper PMC12067093, “Discovery and optimisation of a covalent ligand for TRIM25 and its application to targeted protein ubiquitination” (Chemical Science, 2025).
Some of the results follow.

Protein sequences, listed by entry. Tags and fused reporters are not part of them. Lines headed by an entry give the natural chain unless they say otherwise; changes in a name come on top.
UniProt Q7RTV0, whole entry, looked up: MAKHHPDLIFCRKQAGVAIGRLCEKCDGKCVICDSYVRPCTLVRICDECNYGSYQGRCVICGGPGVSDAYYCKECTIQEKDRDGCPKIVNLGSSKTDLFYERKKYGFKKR
UniProt Q8NEB9, whole entry, looked up: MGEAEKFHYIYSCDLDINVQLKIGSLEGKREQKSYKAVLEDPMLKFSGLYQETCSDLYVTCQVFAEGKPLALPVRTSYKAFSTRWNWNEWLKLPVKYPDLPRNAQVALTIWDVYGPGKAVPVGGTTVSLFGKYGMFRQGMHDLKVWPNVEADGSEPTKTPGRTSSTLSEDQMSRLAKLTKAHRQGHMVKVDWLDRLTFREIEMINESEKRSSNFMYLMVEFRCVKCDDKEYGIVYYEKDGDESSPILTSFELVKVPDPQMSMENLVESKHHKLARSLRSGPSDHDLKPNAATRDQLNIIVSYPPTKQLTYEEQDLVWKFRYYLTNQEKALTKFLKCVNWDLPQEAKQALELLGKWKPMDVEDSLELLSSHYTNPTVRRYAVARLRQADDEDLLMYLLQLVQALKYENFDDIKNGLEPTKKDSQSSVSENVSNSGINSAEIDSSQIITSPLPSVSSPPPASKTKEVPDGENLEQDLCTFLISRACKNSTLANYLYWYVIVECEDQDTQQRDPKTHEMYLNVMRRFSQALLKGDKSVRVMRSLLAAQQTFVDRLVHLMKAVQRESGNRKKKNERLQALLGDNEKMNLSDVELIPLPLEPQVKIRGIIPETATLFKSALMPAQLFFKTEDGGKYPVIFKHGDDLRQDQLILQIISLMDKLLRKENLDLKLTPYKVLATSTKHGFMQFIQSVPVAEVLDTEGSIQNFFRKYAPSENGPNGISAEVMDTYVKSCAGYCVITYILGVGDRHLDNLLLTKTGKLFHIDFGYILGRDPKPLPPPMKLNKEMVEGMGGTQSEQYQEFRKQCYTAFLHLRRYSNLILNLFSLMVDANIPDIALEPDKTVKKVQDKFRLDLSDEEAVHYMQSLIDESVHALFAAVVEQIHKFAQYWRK
UniProt Q8IWS0: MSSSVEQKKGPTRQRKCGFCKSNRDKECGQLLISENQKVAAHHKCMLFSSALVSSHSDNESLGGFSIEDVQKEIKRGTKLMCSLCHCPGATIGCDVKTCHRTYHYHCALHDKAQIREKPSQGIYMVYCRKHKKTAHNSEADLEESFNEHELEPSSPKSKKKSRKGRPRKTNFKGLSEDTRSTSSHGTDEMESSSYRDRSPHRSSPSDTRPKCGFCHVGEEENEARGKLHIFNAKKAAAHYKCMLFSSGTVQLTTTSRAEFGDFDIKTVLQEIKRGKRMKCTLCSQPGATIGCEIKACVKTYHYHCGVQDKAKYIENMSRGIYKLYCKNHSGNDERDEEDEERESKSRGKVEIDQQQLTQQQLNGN
UniProt Q96QT6: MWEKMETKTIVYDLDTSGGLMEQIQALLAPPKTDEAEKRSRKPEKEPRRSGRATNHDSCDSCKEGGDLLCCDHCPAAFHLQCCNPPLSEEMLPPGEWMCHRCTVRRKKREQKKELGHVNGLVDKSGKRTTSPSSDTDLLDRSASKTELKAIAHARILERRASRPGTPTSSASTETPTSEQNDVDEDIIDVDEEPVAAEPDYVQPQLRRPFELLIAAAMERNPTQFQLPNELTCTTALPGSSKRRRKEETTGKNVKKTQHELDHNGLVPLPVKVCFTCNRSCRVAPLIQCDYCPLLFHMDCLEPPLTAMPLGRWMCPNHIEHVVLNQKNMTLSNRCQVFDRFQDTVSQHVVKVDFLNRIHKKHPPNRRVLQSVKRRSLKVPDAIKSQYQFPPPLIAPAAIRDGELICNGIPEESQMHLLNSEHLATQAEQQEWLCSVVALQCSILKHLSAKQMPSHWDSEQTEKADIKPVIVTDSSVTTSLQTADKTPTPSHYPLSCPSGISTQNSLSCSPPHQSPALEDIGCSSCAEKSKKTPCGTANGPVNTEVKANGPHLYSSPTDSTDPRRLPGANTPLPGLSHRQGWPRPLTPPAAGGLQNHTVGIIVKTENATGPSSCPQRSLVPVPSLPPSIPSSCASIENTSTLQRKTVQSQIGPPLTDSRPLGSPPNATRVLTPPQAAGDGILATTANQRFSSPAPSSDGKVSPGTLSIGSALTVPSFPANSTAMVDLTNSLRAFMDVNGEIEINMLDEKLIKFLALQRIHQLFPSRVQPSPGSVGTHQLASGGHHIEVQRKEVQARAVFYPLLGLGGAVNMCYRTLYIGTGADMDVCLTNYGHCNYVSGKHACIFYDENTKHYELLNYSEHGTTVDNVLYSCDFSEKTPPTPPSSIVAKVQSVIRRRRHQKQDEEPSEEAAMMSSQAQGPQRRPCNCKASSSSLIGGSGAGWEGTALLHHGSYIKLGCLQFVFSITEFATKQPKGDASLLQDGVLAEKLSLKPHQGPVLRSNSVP
UniProt Q01813: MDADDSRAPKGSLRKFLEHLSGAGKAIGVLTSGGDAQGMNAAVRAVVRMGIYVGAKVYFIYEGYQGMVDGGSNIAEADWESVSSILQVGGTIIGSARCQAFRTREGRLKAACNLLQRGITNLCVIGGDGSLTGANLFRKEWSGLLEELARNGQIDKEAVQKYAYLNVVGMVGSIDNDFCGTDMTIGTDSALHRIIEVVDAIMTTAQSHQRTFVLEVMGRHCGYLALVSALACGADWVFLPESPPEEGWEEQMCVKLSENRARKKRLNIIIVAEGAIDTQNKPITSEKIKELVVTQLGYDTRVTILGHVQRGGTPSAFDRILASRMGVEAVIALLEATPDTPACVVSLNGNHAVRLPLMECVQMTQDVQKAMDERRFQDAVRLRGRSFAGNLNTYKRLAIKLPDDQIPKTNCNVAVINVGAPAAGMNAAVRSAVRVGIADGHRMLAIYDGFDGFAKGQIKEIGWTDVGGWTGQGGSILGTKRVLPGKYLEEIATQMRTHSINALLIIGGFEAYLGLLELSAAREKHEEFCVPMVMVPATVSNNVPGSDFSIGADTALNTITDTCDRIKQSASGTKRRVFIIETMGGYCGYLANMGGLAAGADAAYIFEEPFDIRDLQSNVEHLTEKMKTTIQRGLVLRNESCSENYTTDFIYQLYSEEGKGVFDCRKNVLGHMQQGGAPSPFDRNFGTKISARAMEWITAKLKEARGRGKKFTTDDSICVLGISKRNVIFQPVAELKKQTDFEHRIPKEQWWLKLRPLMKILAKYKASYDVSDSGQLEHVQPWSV
UniProt P52209: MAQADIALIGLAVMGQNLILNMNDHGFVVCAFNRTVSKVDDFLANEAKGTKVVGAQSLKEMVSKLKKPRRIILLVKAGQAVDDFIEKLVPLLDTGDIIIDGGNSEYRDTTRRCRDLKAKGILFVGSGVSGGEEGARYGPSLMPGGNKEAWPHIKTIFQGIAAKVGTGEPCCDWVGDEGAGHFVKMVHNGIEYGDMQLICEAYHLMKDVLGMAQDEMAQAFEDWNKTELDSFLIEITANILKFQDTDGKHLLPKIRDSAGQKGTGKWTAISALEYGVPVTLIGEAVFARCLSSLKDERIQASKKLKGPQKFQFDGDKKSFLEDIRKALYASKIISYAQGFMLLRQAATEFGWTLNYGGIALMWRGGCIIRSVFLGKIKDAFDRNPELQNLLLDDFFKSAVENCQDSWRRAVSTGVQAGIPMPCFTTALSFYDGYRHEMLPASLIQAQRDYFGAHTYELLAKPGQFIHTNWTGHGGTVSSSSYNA
UniProt O00541, whole entry, looked up: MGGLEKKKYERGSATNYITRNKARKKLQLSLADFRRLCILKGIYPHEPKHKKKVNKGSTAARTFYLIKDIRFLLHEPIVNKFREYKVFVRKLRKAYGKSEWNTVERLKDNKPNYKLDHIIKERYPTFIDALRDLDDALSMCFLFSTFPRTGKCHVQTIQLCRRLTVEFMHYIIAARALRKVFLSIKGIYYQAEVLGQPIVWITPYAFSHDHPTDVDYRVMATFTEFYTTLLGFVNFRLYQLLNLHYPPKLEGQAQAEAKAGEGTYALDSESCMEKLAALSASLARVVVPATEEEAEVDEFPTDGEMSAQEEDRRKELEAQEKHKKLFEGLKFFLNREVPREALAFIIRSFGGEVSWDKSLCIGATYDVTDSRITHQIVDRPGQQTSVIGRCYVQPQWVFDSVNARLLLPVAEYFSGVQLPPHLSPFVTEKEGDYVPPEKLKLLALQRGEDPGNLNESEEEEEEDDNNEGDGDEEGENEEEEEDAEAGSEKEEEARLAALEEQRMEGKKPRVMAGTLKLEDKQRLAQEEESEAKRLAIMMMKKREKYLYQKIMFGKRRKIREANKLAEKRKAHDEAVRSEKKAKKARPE
UniProt Q8IZL8: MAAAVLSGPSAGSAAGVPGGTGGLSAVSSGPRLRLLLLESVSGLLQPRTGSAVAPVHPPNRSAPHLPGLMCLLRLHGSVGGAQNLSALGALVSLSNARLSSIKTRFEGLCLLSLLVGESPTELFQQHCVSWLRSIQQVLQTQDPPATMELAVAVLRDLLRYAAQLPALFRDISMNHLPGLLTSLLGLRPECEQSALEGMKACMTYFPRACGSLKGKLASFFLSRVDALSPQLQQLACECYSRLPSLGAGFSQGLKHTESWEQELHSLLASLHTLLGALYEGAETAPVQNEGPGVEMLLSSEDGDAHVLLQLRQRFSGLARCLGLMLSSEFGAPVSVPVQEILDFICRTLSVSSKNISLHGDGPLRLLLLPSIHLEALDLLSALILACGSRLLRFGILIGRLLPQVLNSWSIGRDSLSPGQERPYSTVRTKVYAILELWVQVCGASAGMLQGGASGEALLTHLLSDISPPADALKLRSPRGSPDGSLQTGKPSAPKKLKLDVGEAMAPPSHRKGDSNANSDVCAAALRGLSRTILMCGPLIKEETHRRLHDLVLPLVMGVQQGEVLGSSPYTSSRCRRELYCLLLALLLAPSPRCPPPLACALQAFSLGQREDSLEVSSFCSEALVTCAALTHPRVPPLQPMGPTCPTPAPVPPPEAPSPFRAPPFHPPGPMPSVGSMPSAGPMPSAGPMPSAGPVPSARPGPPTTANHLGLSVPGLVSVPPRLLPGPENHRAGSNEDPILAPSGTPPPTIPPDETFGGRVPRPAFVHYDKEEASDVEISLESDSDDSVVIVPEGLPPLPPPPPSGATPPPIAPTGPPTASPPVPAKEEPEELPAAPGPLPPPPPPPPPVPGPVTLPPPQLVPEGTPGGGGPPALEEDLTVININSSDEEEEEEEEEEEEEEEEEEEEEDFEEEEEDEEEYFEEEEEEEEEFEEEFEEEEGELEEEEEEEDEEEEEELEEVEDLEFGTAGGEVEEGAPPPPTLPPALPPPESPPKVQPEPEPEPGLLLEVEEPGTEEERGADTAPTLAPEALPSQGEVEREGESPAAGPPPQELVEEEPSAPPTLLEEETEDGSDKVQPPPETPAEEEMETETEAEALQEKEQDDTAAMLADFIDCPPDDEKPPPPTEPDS
UniProt Q6PCE3: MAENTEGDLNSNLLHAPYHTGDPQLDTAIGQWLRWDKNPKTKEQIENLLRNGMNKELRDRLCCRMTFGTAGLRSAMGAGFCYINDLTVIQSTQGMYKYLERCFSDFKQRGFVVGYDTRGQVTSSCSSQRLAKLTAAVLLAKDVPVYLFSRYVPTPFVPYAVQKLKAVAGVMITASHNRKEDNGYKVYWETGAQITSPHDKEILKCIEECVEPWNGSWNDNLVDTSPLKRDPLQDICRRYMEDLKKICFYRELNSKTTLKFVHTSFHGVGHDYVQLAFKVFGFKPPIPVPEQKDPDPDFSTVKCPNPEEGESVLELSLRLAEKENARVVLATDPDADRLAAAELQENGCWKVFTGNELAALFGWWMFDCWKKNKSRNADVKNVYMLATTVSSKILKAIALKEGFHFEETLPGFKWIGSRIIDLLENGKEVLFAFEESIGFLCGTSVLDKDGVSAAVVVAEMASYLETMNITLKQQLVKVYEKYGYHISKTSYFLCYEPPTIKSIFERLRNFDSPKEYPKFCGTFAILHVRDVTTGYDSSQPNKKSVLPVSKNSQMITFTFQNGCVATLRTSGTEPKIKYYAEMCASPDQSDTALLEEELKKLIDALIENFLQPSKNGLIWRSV
UniProt A6NDG6: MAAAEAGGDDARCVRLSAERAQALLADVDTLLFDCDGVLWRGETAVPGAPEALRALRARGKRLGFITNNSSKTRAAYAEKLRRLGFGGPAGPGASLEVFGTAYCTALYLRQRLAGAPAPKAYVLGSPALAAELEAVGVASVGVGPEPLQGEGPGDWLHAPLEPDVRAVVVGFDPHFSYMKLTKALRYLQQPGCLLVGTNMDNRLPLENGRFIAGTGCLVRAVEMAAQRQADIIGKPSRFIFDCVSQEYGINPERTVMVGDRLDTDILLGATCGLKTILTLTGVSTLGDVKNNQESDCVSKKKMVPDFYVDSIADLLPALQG

compound: Cc1cc(ccc1-c1ccccc1)C(=O)N1CCCN(CC1)C(=O)CCl [compound 10]; assay: probe-labelled cysteine peptide fold change vs DMSO (competition) (log2 fold change); higher = less target engagement (more negative = stronger competition); details: 10 µM; THP-1; incubation time: 4 h
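Also: competitive profiling in live THP-1 cells: cysteine peptides tagged with an iodoacetamide desthiobiotin (IA-DTB) probe, intensity after compound treatment relative to DMSO-treated cells.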

Target	probe-labelled cysteine peptide fold change
PHKG2_P15735_353_HLIDNCAFR (UniProt P15735)	0.0938
PHF5A_Q7RTV0_11_HHPDLIFCR (UniProt Q7RTV0)	-0.112
PEX5_P50542_566_YNLGISCINLGAHR (UniProt P50542)	0.241
PIK3C3_Q8NEB9_476_EVPDGENLEQDLCTFLISR (UniProt Q8NEB9)	0.232
PEPD_P12955_467_IEEDVVVTDSGIELLTCVPR (UniProt P12955)	0.413
PHIP_Q8WWQ0_28_FLEDGPCQQAAQVLIR (UniProt Q8WWQ0)	0.0847
PHF6_Q8IWS0_20_KCGFCK (UniProt Q8IWS0)	-0.0505
PHF12_Q96QT6_613_TENATGPSSCPQR (UniProt Q96QT6)	-0.265
PFKP_Q01813_718_KFTTDDSICVLGISK (UniProt Q01813)	-0.0112
PGD_P52209_199_MVHNGIEYGDMQLICEAYHLMK (UniProt P52209)	0.181
PES1_O00541_361_SLCIGATYDVTDSR (UniProt O00541)	-0.0518
PELP1_Q8IZL8_71_SAPHLPGLMCLLR (UniProt Q8IZL8)	-1.13
PELP1_Q8IZL8_522_KGDSNANSDVCAAALR (UniProt Q8IZL8)	0.0142
PHF6_Q8IWS0_128_EKPSQGIYMVYCR (UniProt Q8IWS0)	0.0527
PGM2L1_Q6PCE3_125_GQVTSSCSSQR (UniProt Q6PCE3)	-0.0436
PGP_A6NDG6_193_YLQQPGCLLVGTNMDNRLPLENGR (UniProt A6NDG6)	0.0297
PGM3_O95394_168_LSQSVIDGVTVLGGQFHDYGLLTTPQLHYMVYCR (UniProt O95394)	0.0651

Single values from above.
probe-labelled cysteine peptide fold change with PGM3_O95394_168_LSQSVIDGVTVLGGQFHDYGLLTTPQLHYMVYCR (UniProt O95394) is entered as 0.0651
probe-labelled cysteine peptide fold change with PEX5_P50542_566_YNLGISCINLGAHR (UniProt P50542) is entered as 0.241
